Results of single-concentration screens

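Assay of Toxoplasma gondii numbers, read through their beta-galactosidase reporter with a colour substrate. Tested at 50 µM. The record gives no direction; the compounds picked for IC50 retests had high values, so higher reads as fewer parasites. Size under these conditions: about 18,000 compounds, about 170 of them at 50% or above in at least one test.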

Each number is a percent effect as filed.
The controls that fix the scale are not given in the record; negative values are as filed.
This is an unselected part of the compounds tested.

compound: COC(=O)CN(Cc1ccccc1)C(=O)N(C)C
Percent Effect: -8.964

compound: CC(NS(C)(=O)=O)C(=O)NCc1nnc2n1CCCC2 (centres undefined)
Percent Effect: -16.29

compound: COc1ccc(Br)c(-c2nnn(C)n2)c1
Percent Effect: -17.68

compound: CC(C)[C@@H]1CN(C(=O)c2ccncc2F)C[C@H]1N(C)C
Percent Effect: -2.838

compound: CC(=O)NCCCNCc1cccc(C#N)c1
Percent Effect: 6.273

compound: N#Cc1ccc2c(c1)OCCO2
Percent Effect: 5.192

compound: CC(=O)N1CCN(C(=O)c2cc3ccccc3o2)CC1
Percent Effect: 14.49

compound: O=C(Nc1cc(Cl)c(Cl)cn1)C1COCCO1 (centres undefined)
Percent Effect: 3.955

compound: CCCN(CC1CC1)S(=O)(=O)N1CC[C@@H](O)C1
Percent Effect: 5.674

compound: Cc1cc(NC(=O)NCc2ccccc2O)n(C)n1
Percent Effect: -9.378

compound: CC(Cn1cccn1)NC(=O)NCC(F)(F)F (centres undefined)
Percent Effect: -0.6368

compound: CC(=O)NCCNC(=O)c1cc2c(F)cccc2s1
Percent Effect: 0.3483

compound: C/N=C1\SC(CC(=O)Nc2cccc(Cl)c2)C(=O)N1C (centres undefined)
Percent Effect: 0.9336

compound: CCc1cc(C(=O)NCCN2CCCC2)cc(=O)[nH]1
Percent Effect: -8.858

compound: CC(C)OCCN(CC(N)=O)C(C)C
Percent Effect: 3.915

compound: CC(C)c1nnc(CN[C@H](CO)C(C)C)o1
Percent Effect: 8.3

compound: CN(C)CCCNC1CCS(=O)(=O)C1 (centres undefined)
Percent Effect: 0.4156

compound: Cc1cc(C(=O)N2C[C@@H](CO)[C@H](N(C)C)C2)nn1C
Percent Effect: 24.57

compound: CCN(C)CC1CCN(S(=O)(=O)c2cccnc2)C1 (centres undefined)
Percent Effect: 1.46

compound: CCCc1nc(C(=O)NCCc2cccnc2)cs1
Percent Effect: -0.1814

compound: Cc1cc(NC(=O)CCN2CCC(O)CC2)no1
Percent Effect: -5.196

compound: O=C(Nc1ccccc1)N(CCCO)C1CC1
Percent Effect: 3.1

compound: Cc1cc(NC(=O)NCc2cnn(C)c2C)ccn1
Percent Effect: 4.135

compound: Cc1cc(NC(=O)CSCC(=O)OC2CCOC2)no1 (centres undefined)
Percent Effect: 2.75

compound: Cc1ccc(NC(=O)NCc2cnn(C)c2C)nc1
Percent Effect: 0.1394

compound: CC(C)=CCN1CCN(CCO)CC1CCO (centres undefined)
Percent Effect: 22.16

compound: COCCN(C)C(=O)Nc1cccc(C)n1
Percent Effect: 0.518

compound: CNC(=O)CCc1cc(Br)cs1
Percent Effect: 11.36

compound: CC(CO)OCCc1ccccc1 (centres undefined)
Percent Effect: 3.621

compound: NCCn1cc(C(=O)N2CCCC3(CCNC3)C2)nn1 (centres undefined)
Percent Effect: -7.042

compound: CCN1CCCN(C(=O)c2cnc3ccccn23)CC1
Percent Effect: -1.318

compound: COCC(=O)N(C)C(C)Cc1ccc(OC)cc1 (centres undefined)
Percent Effect: 4.848

compound: COCCNCC(=O)Nc1cccc(S(N)(=O)=O)c1
Percent Effect: -1.045

compound: NCc1cccc(-c2nccs2)c1
Percent Effect: 3.391

compound: CC(=O)c1ccc(C(=O)NCC(=O)C(C)(C)C)cc1
Percent Effect: -13.76

compound: O=C(CS(=O)(=O)Cc1ccccc1)Nc1nccs1
Percent Effect: 6.104

compound: CNC(C)c1cccnc1 (centres undefined)
Percent Effect: 0.08364

compound: CC(OCc1ccccc1)C(=O)NCCN(C)C (centres undefined)
Percent Effect: 2.667

compound: COC(=O)c1cc(NC(C)=O)ccc1N1CCOCC1
Percent Effect: -33.43

compound: N#Cc1ncn(CCOC(=O)Nc2ccccc2)n1
Percent Effect: -4.262

compound: CN(C)c1cc(CNC(=O)C2(C)CCCO2)ccn1 (centres undefined)
Percent Effect: -2.522

compound: CN1CCCN(CC(=O)NCCc2ncnn2C)CC1
Percent Effect: -0.2057

compound: NCCC1CN(Cc2ccccc2)CCO1 (centres undefined)
Percent Effect: -15.38

compound: CSC1(CNC(=O)NCc2ccco2)CCOCC1
Percent Effect: 18.4

compound: NC(=O)NCc1ccc(N2CC=CC2)cc1
Percent Effect: 31.63

compound: Cn1cc([C@@H]2C[C@H]2N)cn1
Percent Effect: 0.3266

compound: O=C(C1CC1)N1CCCCCC1CN1CCOCC1 (centres undefined)
Percent Effect: -1.298

compound: CN(C)[C@@H]1CN(C(=O)C2CC=CC2)C[C@H]1CO
Percent Effect: 14.82

compound: CCNC(=O)Cn1c(=O)n(CC)c2ccccc21
Percent Effect: -6.8

compound: CCN1CCC(NCc2ccc3c(c2)OCO3)CC1
Percent Effect: -4.707

compound: COC1CCN(CC(=O)N2CCCCC2)CC1
Percent Effect: -1.305

compound: CN(C)c1cccc(C(=O)Nc2cnns2)c1
Percent Effect: -7.798

compound: CN1CCN(CCCNC(=O)c2ccco2)CC1
Percent Effect: -0.02843

compound: CN1CCC(CNC(=O)c2ccc[nH]2)(N(C)C)CC1
Percent Effect: -4.677

Repeated from the top, 3 entries:

* COC(=O)CN(Cc1ccccc1)C(=O)N(C)C | -8.964%
* CC(NS(C)(=O)=O)C(=O)NCc1nnc2n1CCCC2 (centres undefined) | -16.29%
* COc1ccc(Br)c(-c2nnn(C)n2)c1 | -17.68%

From ChEMBL document CHEMBL3988442, “University of Dundee, Small-Polar-MMV Screening Library” (2021).